# Where a name gives a salt, the structure may show the parent alone. Over roughly 1,100 compounds, “Wnt reporter firefly/Renilla luciferase ratio relative to plate median” has its median near 1.1; the highest 2% begin near 1.6. Only a part is listed here, and it is no random draw.
# System: HEK293T (UBE3A T485A transfected, BAR Wnt reporter)
# Assay: Wnt reporter firefly/Renilla luciferase ratio relative to plate median (fold (linear ratio)); higher = more Wnt/beta-catenin reporter activation
# Details: 24 h
# In short: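 HEK293T cells were grown in DMEM with 10% FBS at 37°C and 5% CO2, at 4500 cells/well in white 384-well plates. They were transfected with a BAR firefly luciferase Wnt reporter, TK-Renilla and an expression plasmid using Fugene 6. Four hours later, robots dosed the chemicals at 0.01–100 uM for 24 h, followed by Dual-Glo luciferase readout. Wnt activity (firefly/Renilla ratio) and cell health (raw Renilla) were median-centred per plate, averaged over four biological replicates.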
SMILES,Wnt reporter firefly/Renilla luciferase ratio (concentration: 0.1 uM),Wnt reporter firefly/Renilla luciferase ratio (concentration: 1 uM),Wnt reporter firefly/Renilla luciferase ratio (concentration: 10 uM),Wnt reporter firefly/Renilla luciferase ratio (concentration: 100 uM),Wnt reporter firefly/Renilla luciferase ratio (concentration: 0.01 uM)
O=C1CCC(N2C(=O)c3ccccc3C2=O)C(=O)N1 (stereo unspecified) [Thalidomide],0.974,1.1,1.2,1.26,–
CCCOc1sc(C(=O)N2CCC(c3cc(CN)ccc3F)CC2)c(C)c1Br.Cl,0.728,1.11,0.966,0.757,–
Cc1cnc(-c2cnc(NCCNc3ccc(C#N)cn3)nc2-c2ccc(Cl)cc2Cl)[nH]1,–,5.86,128,–,–
CCOc1ccc2[nH]cc(C(=O)NCc3ccccc3)c(=O)c2n1,1.08,0.96,0.631,0.189,–
CCOC(=O)NCCOc1ccc(Oc2ccccc2)cc1 [Fenoxycarb],1.32,1.17,0.911,0.32,1.13
CCCCOC(=O)CC(CC(=O)OCCCC)(OC(C)=O)C(=O)OCCCC [Acetyl tributyl citrate],0.974,1.19,0.975,1.1,–
Cc1c(C(=O)O)c(O)cc2c1C(=O)c1c(O)c([C@@H]3O[C@H](CO)[C@@H](O)[C@H](O)[C@H]3O)c(O)c(O)c1C2=O [Carminic acid],0.9,1.02,1.08,–,–
CC#C[C@]1(O)CC[C@H]2[C@@H]3CCC4=CC(=O)CCC4=C3[C@@H](c3ccc(N(C)C)cc3)C[C@@]21C [Mifepristone],0.957,0.893,0.624,0.0932,–
COC(C)COC(C)COC(C)CO (stereo unspecified) [Tripropylene glycol monomethyl ether],0.768,0.877,0.851,0.939,–
O=C(O)c1cc(/N=N/c2ccc(S(=O)(=O)Nc3ccccn3)cc2)ccc1O [Sulfasalazine],0.944,0.993,1.33,3.01,–
"Nc1cccc(N)c1 [1,3-Benzenediamine]",1.06,0.971,0.946,0.731,–
CC(C)=CCCC(C)CCO (stereo unspecified) [Citronellol],–,–,–,1.64,–
C=C(C)C(N)=O [Methacrylamide],1.22,1.04,1.05,1.25,–
CCN(C(=O)c1cc(C)cc(OC[C@H](C)Nc2ccncc2)c1)C(C)C.Cc1ccc(S(=O)(=O)O)cc1,0.881,1.12,1.08,0.226,–
"Nc1ccccc1N [1,2-Phenylenediamine]",1.28,1.1,1.12,0.431,–
CN(C)c1ccc(C(=C2C=CC(=[N+](C)C)C=C2)c2ccc(N(C)C)cc2)cc1.[Cl-] [Gentian Violet],0.538,–,–,–,–
O=c1[nH]c2ccc(S(=O)CCN3CCC(Cc4ccc(F)cc4)CC3)cc2o1 (stereo unspecified) [Besonprodil],1.11,0.965,0.993,0.313,–
CCOC(=O)COc1cc(-n2ncc(C(F)(F)F)c(C)c2=O)c(F)cc1Cl [Flufenpyr-ethyl],1.28,1.01,1.48,1.47,1.17
"O=C(OCCCCCOC(=O)c1ccccc1)c1ccccc1 [Pentane-1,5-diyl dibenzoate]",0.256,0.526,0.25,0.644,–
CC1CCC(NC(=O)N(CCCl)N=O)CC1 (stereo unspecified) [Semustine],0.921,0.986,0.864,0.475,1.09
CCCCCCCC1CCC(=O)O1 (stereo unspecified) [5-Heptyldihydro-2(3H)-furanone],1.05,1.05,0.952,1.04,–

SMILES,Wnt reporter firefly/Renilla luciferase ratio (concentration: 0.1 uM),Wnt reporter firefly/Renilla luciferase ratio (concentration: 1 uM),Wnt reporter firefly/Renilla luciferase ratio (concentration: 10 uM),Wnt reporter firefly/Renilla luciferase ratio (concentration: 100 uM),Wnt reporter firefly/Renilla luciferase ratio (concentration: 0.01 uM)
"CN(C)C=O [N,N-Dimethylformamide]",1.04,1.11,1.16,1.17,–
O.O=C1[N-]S(=O)(=O)c2ccccc21.[Na+] [Sodium saccharin hydrate],1.03,1.01,1.25,1.45,–
Cc1c(C)c2c(c(C)c1O)CCC(C)(CCCC(C)CCCC(C)CCCC(C)C)O2 (stereo not drawn) [Vitamin E (alpha-tocopherol)],1.04,1.18,0.99,1.51,0.793
O=C1c2c(O)cccc2Cc2cccc(O)c21 [Anthralin],0.825,1.04,1.46,0.798,–
CC(C)(C)C(O)C(Cc1ccc(Cl)cc1)n1cncn1 (stereo unspecified) [Paclobutrazol],1.07,1.14,1.28,1.29,0.837
CN(C)CCCN1c2ccccc2Sc2ccc(Cl)cc21.Cl [Chlorpromazine hydrochloride],1.22,1.15,1.2,0.181,–
O=C(O)CCN(C1(C(=O)NO)CCCC1)S(=O)(=O)c1ccc(Oc2ccc(F)cc2)cc1,1.04,1.1,0.704,1.04,–
COc1ccc2c(c1)c(CC(=O)O)c(C)n2C(=O)c1ccc(Cl)cc1 [Indomethacin],1.22,1.12,1.19,0.189,–
CCc1ccc(O)c(C(C)(C)C)c1 [2-tert-Butyl-4-ethylphenol],0.745,1,0.938,0.976,–
CN(C)C(=O)NC1(c2ccccc2)CCN(CC[C@@]2(c3ccc(F)c(F)c3)CN(C(=O)c3ccccc3)CCO2)CC1.Cl,1.23,1.04,0.891,0.365,–
O=C(O)CN(CC(=O)O)CC(=O)O [Nitrilotriacetic acid],0.925,1.21,1.11,1.25,–
CNCc1cc(F)ccc1Oc1ccc(Cl)c(Cl)c1,1.42,0.925,0.838,0.472,–
"O=S1(=O)CCCO1 [1,3-Propane sultone]",0.785,0.883,1.1,1.24,–
"Cc1cccc(C)c1O [2,6-Dimethylphenol]",1.32,0.992,1.45,1.16,–
CCOc1cccc(-n2cc(C(=O)N3CCN(c4cc(C(=O)[O-])c5ccccc5c4)CC3)nc2-c2ccc(C)cc2)c1.[Na+],0.978,0.953,0.901,0.333,–
CC(=O)/C(C)=C/C1C(C)=CCCC1(C)C (stereo not drawn) [alpha-Isomethylionone],1.53,0.895,1.3,1.4,–
O=c1ccn(C2OC(COP(=O)(O)OP(=O)(O)OP(=O)(O)O)C(O)C2O)c(=O)[nH]1 (stereo unspecified),–,–,–,1.94,–
CC[C@H](C)C(=O)O[C@H]1C[C@H](O)C=C2C=C[C@H](C)[C@H](CC[C@@H](O)C[C@@H](O)CC(=O)[O-])[C@H]21.[Na+] [Pravastatin sodium],1.49,1.04,1.11,1.49,–
NC(=O)N(O)[C@@H]1C=C[C@H](Oc2cccc(Oc3ccc(F)cc3)c2)C1,1.11,1.08,1.05,0.467,–
"O=C1OC(=O)C2C3C=CC(C3)C12 (stereo unspecified) [2-Norbornene-5,6-dicarboxylic anhydride]",1.05,0.843,1.11,1.34,–
CCCCCCC(C=O)=Cc1ccccc1 [2-Benzylideneoctanal],0.942,0.906,0.822,0.757,–

SMILES,Wnt reporter firefly/Renilla luciferase ratio (concentration: 0.1 uM),Wnt reporter firefly/Renilla luciferase ratio (concentration: 1 uM),Wnt reporter firefly/Renilla luciferase ratio (concentration: 10 uM),Wnt reporter firefly/Renilla luciferase ratio (concentration: 100 uM),Wnt reporter firefly/Renilla luciferase ratio (concentration: 0.01 uM)
CCN(Cc1c(F)cccc1Cl)c1c([N+](=O)[O-])cc(C(F)(F)F)cc1[N+](=O)[O-] [Flumetralin],1.65,1.11,0.843,0.851,1.23
CCn1nc(Cc2ccccc2)cc1C1CCN(C[C@H]2C[C@H](N(C)[C@@H](C(=O)O)C(C)C)C[C@@H]2c2cccc(F)c2)CC1,1.29,1.1,1.01,0.156,–
CCCCCCCCCCCCc1ccccc1S(=O)(=O)O [Dodecylbenzenesulfonic acid],1.14,1.13,1.2,1.04,–
Oc1ccccc1O [Catechol],1.13,1.01,0.875,0.27,–
CC(=O)Nc1ccc(O)cc1 [Acetaminophen],1.31,1.15,1.28,1.16,–
COc1cc(C=O)ccc1O [4-Hydroxy-3-methoxybenzaldehyde],1.16,0.961,0.984,1.07,–
Cc1ccc(C(C)(C)C)c(O)c1 [2-tert-Butyl-5-methylphenol],1.13,0.98,1.28,1.37,–
C#CCOC(=O)[C@@H](C)Oc1ccc(Oc2ncc(Cl)cc2F)cc1 [Clodinafop-propargyl],1.37,1.14,1.25,0.479,1.28
O=CCCCC=O [Glutaraldehyde],1.25,1.01,1.41,1.09,–
OC1CCC(C2CCCCC2)CC1 (stereo unspecified) [4-Cyclohexylcyclohexanol],1.25,0.889,1.16,1.04,–
CCCCc1nc2cccnc2n1Cc1ccc(-c2ccccc2-c2nnn[n-]2)cc1.[Na+],0.867,1.04,0.946,0.145,–
CC(=O)N1CCN(c2ccc(OC[C@H]3CO[C@](Cn4ccnc4)(c4ccc(Cl)cc4Cl)O3)cc2)CC1 [Ketoconazole],1.24,0.768,1.09,0.14,–
CCCCCCCC=O [Octanal],1.09,1.13,1.13,1.36,–
CC/C(=C(/CC)c1ccc(O)cc1)c1ccc(O)cc1 [Diethylstilbestrol],0.897,0.807,0.741,0.205,–
COCCOCCOCCOC [Triethylene glycol dimethyl ether],1.07,1.1,1.03,1.36,–
"Nc1cccc2c(N)cccc12 [1,5-Naphthalenediamine]",1.09,0.956,1.11,0.569,–
Cn1c(=O)c2c(ncn2C)n(C)c1=O [Caffeine],0.985,1.06,0.97,1.48,0.921
COC(=O)c1ccccc1O [Methyl salicylate],1.27,1.57,1.25,0.718,–
O=C(O)c1cn(C2CC2)c2cc(N3CCNCC3)c(F)cc2c1=O [Ciprofloxacin],0.853,1.01,0.882,1.74,0.979

# Entries listed so far that contain an aryl methoxy group, in the order listed:
SMILES,Wnt reporter firefly/Renilla luciferase ratio (concentration: 0.1 uM),Wnt reporter firefly/Renilla luciferase ratio (concentration: 1 uM),Wnt reporter firefly/Renilla luciferase ratio (concentration: 10 uM),Wnt reporter firefly/Renilla luciferase ratio (concentration: 100 uM),Wnt reporter firefly/Renilla luciferase ratio (concentration: 0.01 uM)
COc1ccc2c(c1)c(CC(=O)O)c(C)n2C(=O)c1ccc(Cl)cc1 [Indomethacin],1.22,1.12,1.19,0.189,–
COc1cc(C=O)ccc1O [4-Hydroxy-3-methoxybenzaldehyde],1.16,0.961,0.984,1.07,–
